The list shows a part of the results.
What was measured:
Test in all cases: glycan array binding signal (z-score within array); higher = stronger binding
Details in all cases: glycan notation: IUPAC condensed, linker removed
[1] = biological target: Gal(b1-3)GlcNAc(b1-2)Man(a1-3)[Gal(b1-3)GlcNAc(b1-2)Man(a1-6)]Man(b1-4)GlcNAc(b1-4)[Fuc(a1-6)]GlcNAc
Outline: (§1)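 Columns mapping to the same glycan were averaged after glycan names were converted to IUPAC-condensed notation. The data come from 3228 arrays in the Consortium for Functional Glycomics database, limited to those with an available protein sequence. Binding is reported as a within-array Z-score averaged across arrays of one protein sequence and across linkers.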

[2] = biological target: Gal(b1-3)GlcNAc(b1-2)Man(a1-3)[GlcNAc(b1-4)][Gal(b1-3)GlcNAc(b1-2)Man(a1-6)]Man(b1-4)GlcNAc(b1-4)GlcNAc
Outline: as §1

[3] = biological target: Gal(b1-3)GlcNAc(b1-2)[Gal(b1-3)GlcNAc(b1-6)]Man(a1-6)[Gal(b1-3)GlcNAc(b1-2)Man(a1-3)]Man(b1-4)GlcNAc(b1-4)GlcNAc
Outline: as §1

[4] = biological target: Gal(b1-3)GlcNAc(b1-3)Gal(b1-3)GlcNAc
Outline: as §1

[5] = biological target: Gal(b1-3)GlcNAc(b1-3)Gal(b1-4)Glc
Outline: as §1

[6] = biological target: Gal(b1-3)GlcNAc(b1-3)Gal(b1-4)GlcNAc
Outline: as §1

[7] = biological target: Gal(b1-3)GlcNAc(b1-3)Gal(b1-4)GlcNAc(b1-2)Man(a1-3)[Gal(b1-3)GlcNAc(b1-3)Gal(b1-4)GlcNAc(b1-2)Man(a1-6)]Man(b1-4)GlcNAc(b1-4)GlcNAc
Outline: as §1

[8] = biological target: Gal(b1-3)GlcNAc(b1-3)Gal(b1-4)GlcNAc(b1-2)[Gal(b1-3)GlcNAc(b1-3)Gal(b1-4)GlcNAc(b1-6)]Man(a1-6)[Gal(b1-3)GlcNAc(b1-3)Gal(b1-4)GlcNAc(b1-2)Man(a1-3)]Man(b1-4)GlcNAc(b1-4)[Fuc(a1-6)]GlcNAc
Outline: as §1

[9] = biological target: Gal(b1-3)GlcNAc(b1-3)Gal(b1-4)GlcNAc(b1-3)Gal(b1-4)GlcNAc(b1-2)[Gal(b1-3)GlcNAc(b1-3)Gal(b1-4)GlcNAc(b1-3)Gal(b1-4)GlcNAc(b1-6)]Man(a1-6)[Gal(b1-3)GlcNAc(b1-3)Gal(b1-4)GlcNAc(b1-3)Gal(b1-4)GlcNAc(b1-2)Man(a1-3)]Man(b1-4)GlcNAc(b1-4)[Fuc(a1-6)]GlcNAc
Outline: as §1

[10] = biological target: Gal(b1-3)GlcNAc(b1-3)Gal(b1-4)GlcNAc(b1-6)[Gal(b1-3)GlcNAc(b1-3)]Gal(b1-4)Glc
Outline: as §1

[11] = biological target: Gal(b1-3)GlcNAc(b1-3)Gal(b1-4)[Fuc(a1-3)]GlcNAc
Outline: as §1

[12] = biological target: Gal(b1-3)GlcNAc(b1-3)Gal(b1-4)[Fuc(a1-3)]GlcNAc(b1-6)[Gal(b1-3)GlcNAc(b1-3)]Gal(b1-4)Glc
Outline: as §1

[13] = biological target: Gal(b1-3)GlcNAc(b1-3)GalNAc
Outline: as §1

[14] = biological target: Gal(b1-3)GlcNAc(b1-6)Gal(b1-4)GlcNAc
Outline: as §1

[15] = biological target: Gal(b1-3)GlcNAc(b1-6)GalNAc
Outline: as §1

[16] = biological target: Gal(b1-3)GlcNAc(b1-6)[Gal(b1-3)]GalNAc
Outline: as §1

Gal(b1-3)GlcNAc6S = biological target: Gal(b1-3)GlcNAc6S
Outline: as §1

[17] = biological target: Gal(b1-3)[Fuc(a1-4)]GlcNAc
Outline: as §1

[18] = biological target: Gal(b1-3)[Fuc(a1-4)]GlcNAc(b1-2)Man
Outline: as §1

[19] = biological target: Gal(b1-3)[Fuc(a1-4)]GlcNAc(b1-2)Man(a1-3)[Gal(b1-3)[Fuc(a1-4)]GlcNAc(b1-2)Man(a1-6)]Man(b1-4)GlcNAc(b1-4)[Fuc(a1-6)]GlcNAc
Outline: as §1

[20] = biological target: Gal(b1-3)[Fuc(a1-4)]GlcNAc(b1-3)Gal(b1-3)[Fuc(a1-4)]GlcNAc
Outline: as §1

[21] = biological target: Gal(b1-3)[Fuc(a1-4)]GlcNAc(b1-3)Gal(b1-4)[Fuc(a1-3)]GlcNAc
Outline: as §1

[22] = biological target: Gal(b1-3)[Fuc(a1-4)]GlcNAc(b1-6)GalNAc
Outline: as §1

[23] = biological target: Gal(b1-3)[GlcNAc(b1-6)]GalNAc
Outline: as §1

[24] = biological target: Gal(b1-3)[Neu5Ac(a2-6)]GalNAc
Outline: as §1

[25] = biological target: Gal(b1-3)[Neu5Ac(a2-6)]GlcNAc(b1-4)Gal(b1-4)Glc
Outline: as §1

[26] = biological target: Gal(b1-3)[Neu5Ac(b2-6)]GalNAc
Outline: as §1

Gal(b1-4)Gal = biological target: Gal(b1-4)Gal
Outline: as §1

[27] = biological target: Gal(b1-4)GalNAc(a1-3)[Fuc(a1-2)]Gal(b1-4)GlcNAc
Outline: as §1

[28] = biological target: Gal(b1-4)GalNAc(b1-3)[Fuc(a1-2)]Gal(b1-4)GlcNAc
Outline: as §1

Gal(b1-4)Glc = biological target: Gal(b1-4)Glc
Outline: as §1

Gal(b1-4)Glc6S = biological target: Gal(b1-4)Glc6S
Outline: as §1

Gal(b1-4)GlcNAc = biological target: Gal(b1-4)GlcNAc
Outline: as §1

[29] = biological target: Gal(b1-4)GlcNAc(a1-6)Gal(b1-4)GlcNAc
Outline: as §1

Gal(b1-4)GlcNAc(b1-2)Man = biological target: Gal(b1-4)GlcNAc(b1-2)Man
Outline: as §1

[30] = biological target: Gal(b1-4)GlcNAc(b1-2)Man(a1-3)Man(b1-4)GlcNAc(b1-4)GlcNAc
Outline: as §1

[31] = biological target: Gal(b1-4)GlcNAc(b1-2)Man(a1-3)[Gal(b1-4)GlcNAc(b1-2)Man(a1-6)]Man(b1-4)GlcNAc(b1-4)GlcNAc
Outline: as §1

[32] = biological target: Gal(b1-4)GlcNAc(b1-2)Man(a1-3)[Gal(b1-4)GlcNAc(b1-2)Man(a1-6)]Man(b1-4)GlcNAc(b1-4)[Fuc(a1-6)]GlcNAc
Outline: as §1

[33] = biological target: Gal(b1-4)GlcNAc(b1-2)Man(a1-3)[Gal(b1-4)GlcNAc(b1-2)Man(a1-6)][Gal(b1-4)GlcNAc(b1-4)]Man(b1-4)GlcNAc(b1-4)[Fuc(a1-6)]GlcNAc
Outline: as §1

[34] = biological target: Gal(b1-4)GlcNAc(b1-2)Man(a1-3)[Gal(b1-4)GlcNAc(b1-2)Man(a1-6)][GlcNAc(b1-4)]Man(b1-4)GlcNAc(b1-4)[Fuc(a1-6)]GlcNAc
Outline: as §1

[35] = biological target: Gal(b1-4)GlcNAc(b1-2)Man(a1-3)[GlcNAc(b1-2)Man(a1-6)]Man(b1-4)GlcNAc(b1-4)GlcNAc
Outline: as §1

[36] = biological target: Gal(b1-4)GlcNAc(b1-2)Man(a1-3)[GlcNAc(b1-4)][Gal(b1-4)GlcNAc(b1-2)Man(a1-6)]Man(b1-4)GlcNAc(b1-4)GlcNAc
Outline: as §1

[37] = biological target: Gal(b1-4)GlcNAc(b1-2)Man(a1-3)[Man(a1-6)]Man(b1-4)GlcNAc(b1-4)GlcNAc
Outline: as §1

[38] = biological target: Gal(b1-4)GlcNAc(b1-2)Man(a1-6)Man(b1-4)GlcNAc(b1-4)GlcNAc
Outline: as §1

[39] = biological target: Gal(b1-4)GlcNAc(b1-2)Man(a1-6)[GlcNAc(b1-2)Man(a1-3)]Man(b1-4)GlcNAc(b1-4)GlcNAc
Outline: as §1

B1: Mermaid1 (Stilbonema majum) (protein)
chain: MGSSHHHHHHSSGLVPRGSHMAASGWLRSPQGTVVKLYRRSLSWSKADEFCKDVDGRLVVDRTADMHLFLIKNVLKEKKSRVWVGLRRTAPHSRTWIWSDGTRQNEDDLDANLWLRDEPNDAAGEEECALFMYSPWEKAWGLNDYLCRGGCRSYQFICEKWIR
Q: How did the “glycan array binding signal (z-score)” value [1] turn out when B1 was run?
A: 0.098

Q: What about the “glycan array binding signal (z-score)” value [2] of the same binder?
A: -0.487

Q: What about the “glycan array binding signal (z-score)” value [3] of the same binder?
A: -0.787

Q: What about the “glycan array binding signal (z-score)” value [4] of the same binder?
A: -0.336

Q: What about the “glycan array binding signal (z-score)” value [5] of the same binder?
A: -0.562

Q: And the “glycan array binding signal (z-score)” value [6]?
A: -0.048

Q: And the “glycan array binding signal (z-score)” value [7]?
A: -0.024

Q: What about the “glycan array binding signal (z-score)” value [8] of the same binder?
A: 4.98

Q: What about the “glycan array binding signal (z-score)” value [9] of the same binder?
A: 6.8

Q: And the “glycan array binding signal (z-score)” value [10]?
A: -0.457

Q: And the “glycan array binding signal (z-score)” value [11]?
A: -0.845

Q: And the “glycan array binding signal (z-score)” value [12]?
A: -0.624

Q: And the “glycan array binding signal (z-score)” value [13]?
A: -0.72

Q: What about the “glycan array binding signal (z-score)” value [14] of the same binder?
A: -0.416

Q: And the “glycan array binding signal (z-score)” value [15]?
A: 0.045

Q: What about the “glycan array binding signal (z-score)” value [16] of the same binder?
A: 0.436

Q: What about the “glycan array binding signal (z-score)” value (Gal(b1-3)GlcNAc6S) of the same binder?
A: -0.573

Q: What about the “glycan array binding signal (z-score)” value [17] of the same binder?
A: 0.262

Q: What about the “glycan array binding signal (z-score)” value [18] of the same binder?
A: 0.769

Q: What about the “glycan array binding signal (z-score)” value [19] of the same binder?
A: 1.16

Q: What about the “glycan array binding signal (z-score)” value [20] of the same binder?
A: 0.007

Q: What about the “glycan array binding signal (z-score)” value [21] of the same binder?
A: -0.78

Q: What about the “glycan array binding signal (z-score)” value [22] of the same binder?
A: -0.626

Q: What about the “glycan array binding signal (z-score)” value [23] of the same binder?
A: -0.535

Q: And the “glycan array binding signal (z-score)” value [24]?
A: -0.195

Q: What about the “glycan array binding signal (z-score)” value [25] of the same binder?
A: -0.953

Q: And the “glycan array binding signal (z-score)” value [26]?
A: -0.405

Q: And the “glycan array binding signal (z-score)” value (Gal(b1-4)Gal)?
A: 3.2

Q: What about the “glycan array binding signal (z-score)” value [27] of the same binder?
A: 1.62

Q: What about the “glycan array binding signal (z-score)” value [28] of the same binder?
A: 1.83

Q: What about the “glycan array binding signal (z-score)” value (Gal(b1-4)Glc) of the same binder?
A: -0.607

Q: And the “glycan array binding signal (z-score)” value (Gal(b1-4)Glc6S)?
A: 1.17

Q: What about the “glycan array binding signal (z-score)” value (Gal(b1-4)GlcNAc) of the same binder?
A: -0.713

Q: What about the “glycan array binding signal (z-score)” value [29] of the same binder?
A: -0.161

Q: And the “glycan array binding signal (z-score)” value (Gal(b1-4)GlcNAc(b1-2)Man)?
A: -0.052

Q: What about the “glycan array binding signal (z-score)” value [30] of the same binder?
A: -0.913

Q: And the “glycan array binding signal (z-score)” value [31]?
A: -0.772

Q: What about the “glycan array binding signal (z-score)” value [32] of the same binder?
A: -0.453

Q: And the “glycan array binding signal (z-score)” value [33]?
A: -0.657

Q: What about the “glycan array binding signal (z-score)” value [34] of the same binder?
A: -0.863

Q: What about the “glycan array binding signal (z-score)” value [35] of the same binder?
A: -0.648

Q: What about the “glycan array binding signal (z-score)” value [36] of the same binder?
A: -0.595

Q: And the “glycan array binding signal (z-score)” value [37]?
A: 2.41

Q: What about the “glycan array binding signal (z-score)” value [38] of the same binder?
A: -0.428

Q: And the “glycan array binding signal (z-score)” value [39]?
A: -0.397

Reference: the supplement of paper PMC8728848
